Results taken from PMC7851237, “Production, purification, and radiolabeling of the ^203Pb/^212Pb theranostic pair” (EJNMMI Radiopharmacy and Chemistry, 2021).

Key:
[1] = ^203Pb radiolabeling studies (radio-iTLC); settings: room temperature, pH 7, 1 h, n = 3
[2] = ^212Pb radiolabeling studies (radio-iTLC); settings: room temperature, pH 7, 1 h, n = 3

Row | SMILES | ^203Pb radiochemical yield (RCY) ([1]; chelator 10^-4 M) | ^203Pb radiochemical yield (RCY) ([1]; chelator 10^-5 M) | ^203Pb radiochemical yield (RCY) ([1]; chelator 10^-6 M) | ^203Pb radiochemical yield (RCY) ([1]; chelator 10^-7 M) | ^212Pb radiochemical yield (RCY) ([2]; chelator 10^-4 M) | ^212Pb radiochemical yield (RCY) ([2]; chelator 10^-5 M) | ^212Pb radiochemical yield (RCY) ([2]; chelator 10^-6 M) | ^212Pb radiochemical yield (RCY) ([2]; chelator 10^-7 M)
1 | O=C(O)CN1CCN(CC(=O)O)CCN(CC(=O)O)CCN(CC(=O)O)CC1 [DOTA, 1,4,7,10-tetraazacyclododecane-1,4,7,10-tetraacetic acid, reference compound] | 96.1 ± 1.0% | 75.8 ± 9.4% | 3.0 ± 0.8% | 1.5 ± 0.2% | 97.6 ± 0.1% | 96.5 ± 0.8% | 4.3 ± 1.2% | 3.6 ± 0.5%
2 | O=C(O)CN1CCN(CC(=O)O)CCN(Cc2ccccn2)CCN(CC(=O)O)CC1 [DOTA-1Py, 2,2′,2″-(10-(pyridin-2-ylmethyl)-1,4,7,10-tetraazacyclododecane-1,4,7-triyl) triacetic acid] | 97.0 ± 0.3% | 80.6 ± 6.6% | 7.7 ± 5.0% | 1.1 ± 0.2% | 97.0 ± 0.9% | 96.8 ± 0.6% | 13.0 ± 3.1% | 4.6 ± 1.1%
3 | O=C(O)CN1CCN(CC(=O)O)CCN(Cc2ccccn2)CCN(Cc2ccccn2)CC1 [DOTA-2Py, 2,2′-(7,10-bis (pyridin-2-ylmethyl)-1,4,7,10-tetraazacyclododecane-1,4-diyl) diacetic acid] | 97.6 ± 0.3% | 87.6 ± 0.3% | 1.7 ± 0.6% | 1.2 ± 0.3% | 96.9 ± 0.8% | 97.4 ± 0.6% | 5.0 ± 0.4% | 3.7 ± 0.8%
4 | O=C(O)CN1CCN(Cc2ccccn2)CCN(Cc2ccccn2)CCN(Cc2ccccn2)CC1 [DOTA-3Py, 2-(4,7,10-tris (pyridin-2-ylmethyl)-1,4,7,10-tetraazacyclododecan-1-yl) acetic acid] | 97.7 ± 0.5% | 80.6 ± 6.6% | 27.2 ± 1.56% | 1.7 ± 0.1% | 97.6 ± 0.7% | 97.0 ± 0.1% | 26.9 ± 3.6% | 
5 | NC(=O)CN1CCN(CC(N)=O)CCN(CC(N)=O)[C@@H](Cc2ccc(N=C=S)cc2)CN(CC(N)=O)CC1 [p-SCN-Bn-TCMC, reference compound] | 97.2 ± 0.6% | 96.9 ± 0.6% | 43.7 ± 1.0% | 3.7 ± 0.4% | 97.8 ± 0.4% | 98.1 ± 0.5% | 80.8 ± 8.9% | 13.9 ± 1.6%
